# According to the supplement of paper PMC8728848:
# This is one part of the list.
# B1: pTFF2 (Sus scrofa), P01359 (protein)
# chain: KPAACRCSRQDPKNRVNCGFPGITSDQCFTSGCCFDSQVPGVPWCFKPLPAQESEECVMEVSARKNCGYPGISPEDCAARNCCFSDTIPEVPWCFFPMSVEACHY
# What was measured:
# Assay in all cases: glycan array binding signal (z-score within array); higher = stronger binding
# Details in all cases: glycan notation: IUPAC condensed, linker removed
# [1] = target: Fuc(a1-2)Gal(b1-4)GlcNAc(b1-3)Gal(b1-4)GlcNAc(b1-2)Man(a1-3)[Fuc(a1-2)Gal(b1-4)GlcNAc(b1-3)Gal(b1-4)GlcNAc(b1-2)Man(a1-6)]Man(b1-4)GlcNAc(b1-4)GlcNAc
# Procedure, shortened: (§1)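 Columns mapping to the same glycan were averaged after glycan names were converted to IUPAC-condensed notation. The data come from 3228 arrays in the Consortium for Functional Glycomics database, limited to those with an available protein sequence. Binding is reported as a within-array Z-score averaged across arrays of one protein sequence and across linkers.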
# [2] = target: Fuc(a1-2)Gal(b1-4)GlcNAc(b1-3)Gal(b1-4)GlcNAc(b1-3)Gal(b1-4)GlcNAc
# Procedure, shortened: as §1
# [3] = target: Fuc(a1-2)Gal(b1-4)GlcNAc(b1-3)GalNAc
# Procedure, shortened: as §1
# [4] = target: Fuc(a1-2)Gal(b1-4)GlcNAc(b1-3)[Fuc(a1-2)Gal(b1-4)GlcNAc(b1-6)]GalNAc
# Procedure, shortened: as §1
# [5] = target: Fuc(a1-2)Gal(b1-4)GlcNAc(b1-3)[Fuc(a1-3)[Gal(b1-4)]GlcNAc(b1-6)]Gal(b1-4)Glc
# Procedure, shortened: as §1
# [6] = target: Fuc(a1-2)Gal(b1-4)GlcNAc(b1-6)GalNAc
# Procedure, shortened: as §1
# [7] = target: Fuc(a1-2)Gal(b1-4)GlcNAc6S
# Procedure, shortened: as §1
# [8] = target: Fuc(a1-2)Gal(b1-4)[Fuc(a1-3)]GlcNAc
# Procedure, shortened: as §1
# [9] = target: Fuc(a1-2)Gal(b1-4)[Fuc(a1-3)]GlcNAc(b1-2)Man(a1-3)[Fuc(a1-2)Gal(b1-4)[Fuc(a1-3)]GlcNAc(b1-2)Man(a1-6)]Man(b1-4)GlcNAc(b1-4)[Fuc(a1-6)]GlcNAc
# Procedure, shortened: as §1
# [10] = target: Fuc(a1-2)Gal(b1-4)[Fuc(a1-3)]GlcNAc(b1-2)[Fuc(a1-2)Gal(b1-4)[Fuc(a1-3)]GlcNAc(b1-4)]Man(a1-3)[Fuc(a1-2)Gal(b1-4)[Fuc(a1-3)]GlcNAc(b1-2)Man(a1-6)]Man(b1-4)GlcNAc(b1-4)GlcNAc
# Procedure, shortened: as §1
# [11] = target: Fuc(a1-2)Gal(b1-4)[Fuc(a1-3)]GlcNAc(b1-3)Gal(b1-4)[Fuc(a1-3)]GlcNAc
# Procedure, shortened: as §1
# [12] = target: Fuc(a1-2)Gal(b1-4)[Fuc(a1-3)]GlcNAc(b1-3)Gal(b1-4)[Fuc(a1-3)]GlcNAc(b1-3)Gal(b1-4)[Fuc(a1-3)]GlcNAc
# Procedure, shortened: as §1
# [13] = target: Fuc(a1-2)Gal(b1-4)[Fuc(a1-3)]GlcNAc(b1-3)GalNAc
# Procedure, shortened: as §1
# [14] = target: Fuc(a1-2)Gal(b1-4)[Fuc(a1-3)]GlcNAc(b1-3)[Neu5Ac(a2-6)Gal(b1-4)GlcNAc(b1-6)]Gal(b1-4)Glc
# Procedure, shortened: as §1
# [15] = target: Fuc(a1-2)Gal3S(b1-4)GlcNAc
# Procedure, shortened: as §1
# [16] = target: Fuc(a1-2)Gal6S(b1-3)GlcNAc
# Procedure, shortened: as §1
# [17] = target: Fuc(a1-2)Gal6S(b1-3)GlcNAc6S
# Procedure, shortened: as §1
# [18] = target: Fuc(a1-2)Gal6S(b1-4)Glc
# Procedure, shortened: as §1
# [19] = target: Fuc(a1-2)Gal6S(b1-4)Glc6S
# Procedure, shortened: as §1
# [20] = target: Fuc(a1-2)[Gal(a1-3)]Gal
# Procedure, shortened: as §1
# [21] = target: Fuc(a1-2)[Gal(a1-3)]Gal(b1-3)GalNAc
# Procedure, shortened: as §1
# [22] = target: Fuc(a1-2)[Gal(a1-3)]Gal(b1-3)GalNAc(b1-3)Gal(a1-4)Gal(b1-4)Glc
# Procedure, shortened: as §1
# [23] = target: Fuc(a1-2)[Gal(a1-3)]Gal(b1-3)GlcNAc
# Procedure, shortened: as §1
# [24] = target: Fuc(a1-2)[Gal(a1-3)]Gal(b1-3)GlcNAc(b1-2)Man(a1-3)[Fuc(a1-2)[Gal(a1-3)]Gal(b1-3)GlcNAc(b1-2)Man(a1-6)]Man(b1-4)GlcNAc(b1-4)GlcNAc
# Procedure, shortened: as §1
# [25] = target: Fuc(a1-2)[Gal(a1-3)]Gal(b1-3)GlcNAc(b1-2)Man(a1-3)[Fuc(a1-2)[Gal(a1-3)]Gal(b1-3)GlcNAc(b1-2)Man(a1-6)]Man(b1-4)GlcNAc(b1-4)[Fuc(a1-6)]GlcNAc
# Procedure, shortened: as §1
# [26] = target: Fuc(a1-2)[Gal(a1-3)]Gal(b1-3)GlcNAc(b1-3)GalNAc
# Procedure, shortened: as §1
# [27] = target: Fuc(a1-2)[Gal(a1-3)]Gal(b1-3)GlcNAc(b1-6)GalNAc
# Procedure, shortened: as §1
# [28] = target: Fuc(a1-2)[Gal(a1-3)]Gal(b1-4)Glc
# Procedure, shortened: as §1
# [29] = target: Fuc(a1-2)[Gal(a1-3)]Gal(b1-4)GlcNAc
# Procedure, shortened: as §1
# [30] = target: Fuc(a1-2)[Gal(a1-3)]Gal(b1-4)GlcNAc(b1-2)Man
# Procedure, shortened: as §1
# [31] = target: Fuc(a1-2)[Gal(a1-3)]Gal(b1-4)GlcNAc(b1-2)Man(a1-3)[Fuc(a1-2)[Gal(a1-3)]Gal(b1-4)GlcNAc(b1-2)Man(a1-6)]Man(b1-4)GlcNAc(b1-4)GlcNAc
# Procedure, shortened: as §1
# [32] = target: Fuc(a1-2)[Gal(a1-3)]Gal(b1-4)GlcNAc(b1-2)Man(a1-3)[Fuc(a1-2)[Gal(a1-3)]Gal(b1-4)GlcNAc(b1-2)Man(a1-6)]Man(b1-4)GlcNAc(b1-4)[Fuc(a1-6)]GlcNAc
# Procedure, shortened: as §1
# [33] = target: Fuc(a1-2)[Gal(a1-3)]Gal(b1-4)GlcNAc(b1-3)GalNAc
# Procedure, shortened: as §1
# [34] = target: Fuc(a1-2)[Gal(a1-3)]Gal(b1-4)GlcNAc(b1-3)[Fuc(a1-2)[Gal(a1-3)]Gal(b1-4)GlcNAc(b1-6)]GalNAc
# Procedure, shortened: as §1
# [35] = target: Fuc(a1-2)[Gal(a1-3)]Gal(b1-4)GlcNAc(b1-6)GalNAc
# Procedure, shortened: as §1
# [36] = target: Fuc(a1-2)[Gal(a1-3)]Gal(b1-4)[Fuc(a1-3)]Glc
# Procedure, shortened: as §1
# [37] = target: Fuc(a1-2)[Gal(a1-3)]Gal(b1-4)[Fuc(a1-3)]GlcNAc
# Procedure, shortened: as §1
# [38] = target: Fuc(a1-2)[Gal(a1-3)]Gal(b1-4)[Fuc(a1-3)]GlcNAc(b1-3)GalNAc
# Procedure, shortened: as §1
# [39] = target: Fuc(a1-2)[Gal(a1-4)]Gal(b1-4)GlcNAc
# Procedure, shortened: as §1
# [40] = target: Fuc(a1-2)[GalNAc(a1-3)]Gal
# Procedure, shortened: as §1
# [41] = target: Fuc(a1-2)[GalNAc(a1-3)]Gal(b1-3)GalNAc(a1-3)[Fuc(a1-2)]Gal(b1-4)GlcNAc
# Procedure, shortened: as §1
# [42] = target: Fuc(a1-2)[GalNAc(a1-3)]Gal(b1-3)GalNAc(b1-3)Gal(a1-4)Gal(b1-4)Glc
# Procedure, shortened: as §1
# [43] = target: Fuc(a1-2)[GalNAc(a1-3)]Gal(b1-3)GlcNAc
# Procedure, shortened: as §1
# [44] = target: Fuc(a1-2)[GalNAc(a1-3)]Gal(b1-3)GlcNAc(b1-2)Man(a1-3)[Fuc(a1-2)[GalNAc(a1-3)]Gal(b1-3)GlcNAc(b1-2)Man(a1-6)]Man(b1-4)GlcNAc(b1-4)GlcNAc
# Procedure, shortened: as §1
# [45] = target: Fuc(a1-2)[GalNAc(a1-3)]Gal(b1-3)GlcNAc(b1-2)Man(a1-3)[Fuc(a1-2)[GalNAc(a1-3)]Gal(b1-3)GlcNAc(b1-2)Man(a1-6)]Man(b1-4)GlcNAc(b1-4)[Fuc(a1-6)]GlcNAc
# Procedure, shortened: as §1
binder,measurement,setting,value
B1,glycan array binding signal (z-score),[1],0.716
same,glycan array binding signal (z-score),[2],1.39
same,glycan array binding signal (z-score),[3],1.05
same,glycan array binding signal (z-score),[4],-0.074
same,glycan array binding signal (z-score),[5],-0.937
same,glycan array binding signal (z-score),[6],-2.82
same,glycan array binding signal (z-score),[7],0.433
same,glycan array binding signal (z-score),[8],-0.508
same,glycan array binding signal (z-score),[9],0
same,glycan array binding signal (z-score),[10],0.821
same,glycan array binding signal (z-score),[11],-1.44
same,glycan array binding signal (z-score),[12],-1.71
same,glycan array binding signal (z-score),[13],-0.208
same,glycan array binding signal (z-score),[14],0.053
same,glycan array binding signal (z-score),[15],-0.403
same,glycan array binding signal (z-score),[16],-0.54
same,glycan array binding signal (z-score),[17],-0.991
same,glycan array binding signal (z-score),[18],0.931
same,glycan array binding signal (z-score),[19],0.533
same,glycan array binding signal (z-score),[20],-0.204
same,glycan array binding signal (z-score),[21],-1.09
same,glycan array binding signal (z-score),[22],-0.181
same,glycan array binding signal (z-score),[23],-0.692
same,glycan array binding signal (z-score),[24],0.289
same,glycan array binding signal (z-score),[25],-1.25
same,glycan array binding signal (z-score),[26],1.31
same,glycan array binding signal (z-score),[27],-0.319
same,glycan array binding signal (z-score),[28],-0.294
same,glycan array binding signal (z-score),[29],-0.538
same,glycan array binding signal (z-score),[30],-0.157
same,glycan array binding signal (z-score),[31],1.79
same,glycan array binding signal (z-score),[32],-0.545
same,glycan array binding signal (z-score),[33],0.594
same,glycan array binding signal (z-score),[34],0.188
same,glycan array binding signal (z-score),[35],-0.303
same,glycan array binding signal (z-score),[36],-0.571
same,glycan array binding signal (z-score),[37],0.53
same,glycan array binding signal (z-score),[38],-2.12
same,glycan array binding signal (z-score),[39],-0.413
same,glycan array binding signal (z-score),[40],0.408
same,glycan array binding signal (z-score),[41],-0.618
same,glycan array binding signal (z-score),[42],0.098
same,glycan array binding signal (z-score),[43],-0.316
same,glycan array binding signal (z-score),[44],-1.06
same,glycan array binding signal (z-score),[45],0.833

# 2 entries from above, set out differently.
binder	measurement	setting	value
B1	glycan array binding signal (z-score)	[19]	0.533
same	glycan array binding signal (z-score)	[20]	-0.204
